Results deposited as PubChem BioAssay AID1224830 (NIAID, 2016).
The deposit covers about 18,000 reagents; this is a random part of them. About 2,900 of them (16%) count as active. 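Calls are made per well; low scores hint the gene aids the LPS response, high scores that it dampens it.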 Unmarked entries are inactive. Repeated entries: four replicate wells of each siRNA pool.

Test: 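Genes whose knock-down alters the TNF-alpha reporter response to LPS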 (primary screen)
Cells: human THP-1 monocytic leukaemia cells, TNF dual-luciferase reporter clone, PMA-differentiated to macrophage-like cells
Reagents: siRNA pool against human genes, 50 nM
Duration: LPS for 4 h, given about 3 days after siRNA transfection
Challenge: bacterial LPS (TLR4 ligand), 10 ng/ml
Measured: 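TNF firefly reporter luminescence divided by renilla, normalised to the plate median, then turned into a robust z-score for each replicate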
Reading the numbers: TNF reporter robust z-score: higher = stronger TNF reporter response to LPS
Rule for the call: 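Each well counts as active if its z-score is over 2.8 or under -1.5; controls are left without a call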

ENOSF1 (enolase superfamily member 1) [SID315457678]: TNF reporter robust z-score = 0.97
ENOSF1 (enolase superfamily member 1) [SID315457678]: TNF reporter robust z-score = 0.06
ENOSF1 (enolase superfamily member 1) [SID315457678]: TNF reporter robust z-score = 0.11
ENOSF1 (enolase superfamily member 1) [SID315457678]: TNF reporter robust z-score = -0.42
RNF181 (ring finger protein 181) [SID315456586]: TNF reporter robust z-score = -1.38
RNF181 (ring finger protein 181) [SID315456586]: TNF reporter robust z-score = 0.32
RNF181 (ring finger protein 181) [SID315456586]: TNF reporter robust z-score = -0.46
RNF181 (ring finger protein 181) [SID315456586]: TNF reporter robust z-score = 0.21
MT1E (metallothionein 1E) [SID315450054]: TNF reporter robust z-score = 0.64
MT1E (metallothionein 1E) [SID315450054]: TNF reporter robust z-score = 0.82
MT1E (metallothionein 1E) [SID315450054]: TNF reporter robust z-score = 0.3
MT1E (metallothionein 1E) [SID315450054]: TNF reporter robust z-score = 0.73
UBE2E2 (ubiquitin conjugating enzyme E2 E2) [SID315452041]: TNF reporter robust z-score = 2.25
UBE2E2 (ubiquitin conjugating enzyme E2 E2) [SID315452041]: TNF reporter robust z-score = 1.99
UBE2E2 (ubiquitin conjugating enzyme E2 E2) [SID315452041]: TNF reporter robust z-score = 1.31
UBE2E2 (ubiquitin conjugating enzyme E2 E2) [SID315452041]: TNF reporter robust z-score = 2.65
RCN3 (reticulocalbin 3) [SID315458353]: TNF reporter robust z-score = -1.92 (active)
RCN3 (reticulocalbin 3) [SID315458353]: TNF reporter robust z-score = -1.28
RCN3 (reticulocalbin 3) [SID315458353]: TNF reporter robust z-score = -1.91 (active)
RCN3 (reticulocalbin 3) [SID315458353]: TNF reporter robust z-score = -1.41

Next part, starting with the last 5 of the part before.
UBE2E2 (ubiquitin conjugating enzyme E2 E2) [SID315452041]: TNF reporter robust z-score = 2.65
RCN3 (reticulocalbin 3) [SID315458353]: TNF reporter robust z-score = -1.92 (active)
RCN3 (reticulocalbin 3) [SID315458353]: TNF reporter robust z-score = -1.28
RCN3 (reticulocalbin 3) [SID315458353]: TNF reporter robust z-score = -1.91 (active)
RCN3 (reticulocalbin 3) [SID315458353]: TNF reporter robust z-score = -1.41
LNX1 (ligand of numb-protein X 1) [SID315460480]: TNF reporter robust z-score = 0.79
LNX1 (ligand of numb-protein X 1) [SID315460480]: TNF reporter robust z-score = -0.28
LNX1 (ligand of numb-protein X 1) [SID315460480]: TNF reporter robust z-score = -0.22
LNX1 (ligand of numb-protein X 1) [SID315460480]: TNF reporter robust z-score = -1.78 (active)
OR13D1 (olfactory receptor family 13 subfamily D member 1) [SID315463915]: TNF reporter robust z-score = 0.74
OR13D1 (olfactory receptor family 13 subfamily D member 1) [SID315463915]: TNF reporter robust z-score = 0.88
OR13D1 (olfactory receptor family 13 subfamily D member 1) [SID315463915]: TNF reporter robust z-score = 1.09
OR13D1 (olfactory receptor family 13 subfamily D member 1) [SID315463915]: TNF reporter robust z-score = 1.13
ZNF391 (zinc finger protein 391) [SID315464198]: TNF reporter robust z-score = -0.6
ZNF391 (zinc finger protein 391) [SID315464198]: TNF reporter robust z-score = -0.16
ZNF391 (zinc finger protein 391) [SID315464198]: TNF reporter robust z-score = -1.08
ZNF391 (zinc finger protein 391) [SID315464198]: TNF reporter robust z-score = -0.03
REXO4 (RNA exonuclease 4) [SID315458265]: TNF reporter robust z-score = -0.57
REXO4 (RNA exonuclease 4) [SID315458265]: TNF reporter robust z-score = -0.23
REXO4 (RNA exonuclease 4) [SID315458265]: TNF reporter robust z-score = -0.01
REXO4 (RNA exonuclease 4) [SID315458265]: TNF reporter robust z-score = 0.1
BROX (BRO1 domain and CAAX motif containing) [SID315462379]: TNF reporter robust z-score = -0.83
BROX (BRO1 domain and CAAX motif containing) [SID315462379]: TNF reporter robust z-score = -1.05
BROX (BRO1 domain and CAAX motif containing) [SID315462379]: TNF reporter robust z-score = -0.79
BROX (BRO1 domain and CAAX motif containing) [SID315462379]: TNF reporter robust z-score = -0.78
FRRS1L (ferric chelate reductase 1 like) [SID315455414]: TNF reporter robust z-score = 0.43
FRRS1L (ferric chelate reductase 1 like) [SID315455414]: TNF reporter robust z-score = 2.52
FRRS1L (ferric chelate reductase 1 like) [SID315455414]: TNF reporter robust z-score = -0.12
FRRS1L (ferric chelate reductase 1 like) [SID315455414]: TNF reporter robust z-score = -0.06
SNAP29 (synaptosome associated protein 29) [SID315453212]: TNF reporter robust z-score = 0.33
SNAP29 (synaptosome associated protein 29) [SID315453212]: TNF reporter robust z-score = 0.88
SNAP29 (synaptosome associated protein 29) [SID315453212]: TNF reporter robust z-score = 0.9
SNAP29 (synaptosome associated protein 29) [SID315453212]: TNF reporter robust z-score = 0.59
ZBTB24 (zinc finger and BTB domain containing 24) [SID315453609]: TNF reporter robust z-score = 0.61
ZBTB24 (zinc finger and BTB domain containing 24) [SID315453609]: TNF reporter robust z-score = -0.52
ZBTB24 (zinc finger and BTB domain containing 24) [SID315453609]: TNF reporter robust z-score = -0.25
ZBTB24 (zinc finger and BTB domain containing 24) [SID315453609]: TNF reporter robust z-score = 0.05
PTCH2 (patched 2) [SID315452710]: TNF reporter robust z-score = -0.04
PTCH2 (patched 2) [SID315452710]: TNF reporter robust z-score = -0.81
PTCH2 (patched 2) [SID315452710]: TNF reporter robust z-score = 0.89
PTCH2 (patched 2) [SID315452710]: TNF reporter robust z-score = 0.7
SIX5 (SIX homeobox 5) [SID315462347]: TNF reporter robust z-score = 1.72
SIX5 (SIX homeobox 5) [SID315462347]: TNF reporter robust z-score = 0.71
SIX5 (SIX homeobox 5) [SID315462347]: TNF reporter robust z-score = -0.07
SIX5 (SIX homeobox 5) [SID315462347]: TNF reporter robust z-score = 0.07
